The results in this text go back to US20240261378A1.

Amino acid sequences for entries named in this document (tags omitted).
UniProt Q86VP1: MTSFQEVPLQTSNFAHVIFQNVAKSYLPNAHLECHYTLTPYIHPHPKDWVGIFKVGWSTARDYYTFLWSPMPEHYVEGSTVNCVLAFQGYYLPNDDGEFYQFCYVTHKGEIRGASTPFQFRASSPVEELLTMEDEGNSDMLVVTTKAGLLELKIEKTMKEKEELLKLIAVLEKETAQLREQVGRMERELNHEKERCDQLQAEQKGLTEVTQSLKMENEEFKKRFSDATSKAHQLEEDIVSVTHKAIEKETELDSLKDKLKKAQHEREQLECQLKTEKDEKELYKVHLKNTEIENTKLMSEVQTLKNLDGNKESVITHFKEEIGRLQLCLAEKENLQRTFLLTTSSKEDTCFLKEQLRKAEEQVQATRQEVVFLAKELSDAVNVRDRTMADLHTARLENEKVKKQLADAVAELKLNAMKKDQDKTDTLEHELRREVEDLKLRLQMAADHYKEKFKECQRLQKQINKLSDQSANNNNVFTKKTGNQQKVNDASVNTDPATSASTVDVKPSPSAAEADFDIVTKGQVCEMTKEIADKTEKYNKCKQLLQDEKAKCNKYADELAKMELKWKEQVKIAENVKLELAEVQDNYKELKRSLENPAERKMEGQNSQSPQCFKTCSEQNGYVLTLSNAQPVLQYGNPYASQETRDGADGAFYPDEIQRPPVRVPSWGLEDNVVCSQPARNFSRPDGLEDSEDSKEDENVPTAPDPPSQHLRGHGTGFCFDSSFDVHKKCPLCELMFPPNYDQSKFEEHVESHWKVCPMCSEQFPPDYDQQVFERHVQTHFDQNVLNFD

Assay [1] deals with T1, NDP52 (UniProt Q13137).
T1 sequence (looked up): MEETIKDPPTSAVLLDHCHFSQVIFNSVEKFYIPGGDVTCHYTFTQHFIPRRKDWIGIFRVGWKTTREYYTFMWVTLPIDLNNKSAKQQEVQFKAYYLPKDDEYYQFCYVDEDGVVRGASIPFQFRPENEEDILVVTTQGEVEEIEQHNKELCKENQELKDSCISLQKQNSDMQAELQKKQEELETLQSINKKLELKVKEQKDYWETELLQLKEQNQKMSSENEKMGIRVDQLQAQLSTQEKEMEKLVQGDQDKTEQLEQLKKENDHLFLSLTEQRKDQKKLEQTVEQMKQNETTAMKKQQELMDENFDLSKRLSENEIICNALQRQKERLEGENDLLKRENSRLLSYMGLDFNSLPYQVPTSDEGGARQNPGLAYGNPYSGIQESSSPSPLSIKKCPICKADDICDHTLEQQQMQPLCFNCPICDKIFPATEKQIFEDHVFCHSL
The assay can be described thus: GST-galectin-8 pull-down with Sequestosome 1-like receptors.

Assay [2] concerns the target TAX1BP1 (UniProt Q86VP1). The description is as above.

Results are given in words; binding and its absence hold for the method and conditions named. In cells and extracts the contact can be indirect. Some entries that bind do so weakly or less than the wild type. Where a sequence is shown, tags or fusion partners need not be part of it.

B1: GST-Galectin-8 (protein, not shown: a dimerising Fc or GST)
chain: MMLSLNNLQNIIYNPVIPFVGTIPDQLDPGTLIVIRGHVPSDADRFQVDLQNGSSMKPRADVAFHFNPRFKRAGCIVCNTLINEKWGREEITYDTPFKREKSFEIVIMVLKDKFQVAVNGKHTLLYGHRIGPEKIDTLGIYGKVNIHSIGFSFSSDLQSTQASSLELTEISRENVPKSGTPQLPSNRGGDISKIAPRTVYTKSKDSTVNHTLTCTKIPPMNYVSKRLPFAARLNTPMGPGRTVVVKGEVNANAKSFNVDLLAGKSKDIALHLNPRLNIKAFVRNSFLQESWGEEERNITSFPFSPGMYFEMIIYCDVREFKVAVNGVHSLEYKHRFKELSSIDTLEINGDIHLLEVRSW
With B1, the binding result in assay [1] and in assay [2] was “binds” in each case.
